Results on four compounds are retold here after patent publication US20250155433A1, “FLUORESCENT SENSORS FOR DETECTION OF SIDEROPHORES AND OTHER MOLECULES PRODUCED BY BACTERIAL PATHOGENS” (Kansas State University Research Foundation, priority 2021, published 2025).

In one series the test system is E. coli Nissle 1917. As to the kind of experiment: Siderophore concentrations in spent media, Nissle 1917. Type of series: cell-based. To be noted: for Concentration in spent bacterial media, Nissle: ferrated supernatant.
The subject of another series is E. coli MG1655. Nature of the series: Siderophore concentrations in spent media, MG1655. To be noted: ferrated supernatant. Type of series: cell-based.

As for `CC(=O)N(O)CCCC[C@H](NC(=O)CC(O)(CC(=O)N[C@@H](CCCCN(O)C(C)=O)C(=O)O)C(=O)O)C(=O)O` [Abn, aerobactin], the “Production by E. coli Nissle 1917” value in the series on E. coli Nissle 1917 turned out to be 0.2 mM.
`CC(=O)N([O-])CCCC[C@H](NC(=O)CC(O)(CC(=O)N[C@@H](CCCCN([O-])C(C)=O)C(=O)O)C(=O)[O-])C(=O)O.[Fe+3]` [FeAbn, ferric aerobactin]: the “Concentration in spent bacterial media, Nissle” value (shortened to “Concentration … Nissle”) with E. coli Nissle 1917 (M9, 24 h) stood at 26.5 ± 0.9 µM; in the series on E. coli Nissle 1917 (MOPS, 24 h), 180 ± 14 µM. The “Concentration in spent bacterial media, MG1655” value (“Concentration … MG1655” below) with E. coli MG1655 (M9, 24 h) was 0 µM; in the series with E. coli MG1655 (MOPS, 24 h) it was 0 µM.
As to `O=C(N[C@H]1COC(=O)[C@@H](NC(=O)c2cccc([O-])c2[O-])COC(=O)[C@@H](NC(=O)c2cccc([O-])c2[O-])COC1=O)c1cccc([O-])c1[O-].[Fe+3]` [FeEnt, ferric enterobactin], the “Concentration … Nissle” value was 0.04 ± 0.01 µM with E. coli Nissle 1917 (M9, 24 h) and 4.6 ± .01 µM in the series on E. coli Nissle 1917 (MOPS, 24 h). The “Concentration … MG1655” value was determined as 3.2 ± 0.1 µM with E. coli MG1655 (M9, 24 h) and 32.5 ± 0.13 µM in the series on E. coli MG1655 (MOPS, 24 h).
Take `O=C(N[C@H]1COC(=O)[C@@H](NC(=O)c2cc([C@@H]3O[C@H](CO)[C@@H](O)[C@H](O)[C@H]3O)cc(O)c2[O-])COC(=O)[C@@H](NC(=O)c2cc([C@@H]3O[C@H](CO)[C@@H](O)[C@H](O)[C@H]3O)cc(O)c2[O-])COC1=O)c1cccc(O)c1[O-].[Fe+3]` [FeGEnt]: in the series with E. coli Nissle 1917 (M9, 24 h), the “Concentration … Nissle” value was found to be 0.3 µM. The “Concentration … MG1655” value in the series with E. coli MG1655 (M9, 24 h) was found to be 1.6 µM.
